No constants are given. Whether binding was seen depends on the method and setting. Some results given as binding are weak or reduced against the parent protein; the word gives no strength. For part of these data: Where a sequence is shown, tags or fusion partners need not be part of it.
How the values were obtained:
[1] = molecular target: Spt7 with a C-terminal TAP tag (S. cerevisiae) (UniProt P35177); assay: affinity purification (TAP tag) with Western blot; WT SAGA purified by Spt7-TAP (strain CW14), 81 nM on SDS-PAGE, anti-GCN5 blot
[2] = molecular target: Spt7 with a C-terminal TAP tag (S. cerevisiae) (UniProt P35177); assay: affinity purification (TAP tag) with Western blot; SAGA-Ada2ΔSWIRM purified by Spt7-TAP (strain CW20), 81 nM and 7× (568 nM) on SDS-PAGE, anti-GCN5 blot
[3] = molecular target: T1, Ada3 with a hexahistidine tag (recombinant) (Saccharomyces cerevisiae) (UniProt P32494); assay: co-purification (Ni-NTA, anion exchange); Gcn5, Ada2 (WT or ΔSWIRM) and His-tagged Ada3 co-expressed in E. coli; batch Ni-NTA by the hexahistidine tag on Ada3, then Source Q
T1 sequence: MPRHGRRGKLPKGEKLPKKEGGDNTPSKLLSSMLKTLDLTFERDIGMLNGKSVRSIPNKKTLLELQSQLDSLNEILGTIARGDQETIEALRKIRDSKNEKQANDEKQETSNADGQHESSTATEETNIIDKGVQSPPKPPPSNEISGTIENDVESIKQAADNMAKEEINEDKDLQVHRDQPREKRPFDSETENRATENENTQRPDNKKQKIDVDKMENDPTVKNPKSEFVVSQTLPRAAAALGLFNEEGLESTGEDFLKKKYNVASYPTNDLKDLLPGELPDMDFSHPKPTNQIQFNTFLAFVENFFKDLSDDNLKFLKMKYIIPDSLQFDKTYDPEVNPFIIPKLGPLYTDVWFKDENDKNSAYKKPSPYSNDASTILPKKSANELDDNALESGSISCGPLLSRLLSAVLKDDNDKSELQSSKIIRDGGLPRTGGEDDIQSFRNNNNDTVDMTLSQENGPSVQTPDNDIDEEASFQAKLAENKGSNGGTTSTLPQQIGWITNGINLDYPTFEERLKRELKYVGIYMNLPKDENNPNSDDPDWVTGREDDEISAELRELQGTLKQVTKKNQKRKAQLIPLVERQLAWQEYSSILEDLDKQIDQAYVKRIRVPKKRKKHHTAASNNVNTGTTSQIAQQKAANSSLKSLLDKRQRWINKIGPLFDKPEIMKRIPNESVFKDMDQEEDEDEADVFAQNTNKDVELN

Chains of the proteins cited; added tags and fusions are not shown.
UniProt P35177: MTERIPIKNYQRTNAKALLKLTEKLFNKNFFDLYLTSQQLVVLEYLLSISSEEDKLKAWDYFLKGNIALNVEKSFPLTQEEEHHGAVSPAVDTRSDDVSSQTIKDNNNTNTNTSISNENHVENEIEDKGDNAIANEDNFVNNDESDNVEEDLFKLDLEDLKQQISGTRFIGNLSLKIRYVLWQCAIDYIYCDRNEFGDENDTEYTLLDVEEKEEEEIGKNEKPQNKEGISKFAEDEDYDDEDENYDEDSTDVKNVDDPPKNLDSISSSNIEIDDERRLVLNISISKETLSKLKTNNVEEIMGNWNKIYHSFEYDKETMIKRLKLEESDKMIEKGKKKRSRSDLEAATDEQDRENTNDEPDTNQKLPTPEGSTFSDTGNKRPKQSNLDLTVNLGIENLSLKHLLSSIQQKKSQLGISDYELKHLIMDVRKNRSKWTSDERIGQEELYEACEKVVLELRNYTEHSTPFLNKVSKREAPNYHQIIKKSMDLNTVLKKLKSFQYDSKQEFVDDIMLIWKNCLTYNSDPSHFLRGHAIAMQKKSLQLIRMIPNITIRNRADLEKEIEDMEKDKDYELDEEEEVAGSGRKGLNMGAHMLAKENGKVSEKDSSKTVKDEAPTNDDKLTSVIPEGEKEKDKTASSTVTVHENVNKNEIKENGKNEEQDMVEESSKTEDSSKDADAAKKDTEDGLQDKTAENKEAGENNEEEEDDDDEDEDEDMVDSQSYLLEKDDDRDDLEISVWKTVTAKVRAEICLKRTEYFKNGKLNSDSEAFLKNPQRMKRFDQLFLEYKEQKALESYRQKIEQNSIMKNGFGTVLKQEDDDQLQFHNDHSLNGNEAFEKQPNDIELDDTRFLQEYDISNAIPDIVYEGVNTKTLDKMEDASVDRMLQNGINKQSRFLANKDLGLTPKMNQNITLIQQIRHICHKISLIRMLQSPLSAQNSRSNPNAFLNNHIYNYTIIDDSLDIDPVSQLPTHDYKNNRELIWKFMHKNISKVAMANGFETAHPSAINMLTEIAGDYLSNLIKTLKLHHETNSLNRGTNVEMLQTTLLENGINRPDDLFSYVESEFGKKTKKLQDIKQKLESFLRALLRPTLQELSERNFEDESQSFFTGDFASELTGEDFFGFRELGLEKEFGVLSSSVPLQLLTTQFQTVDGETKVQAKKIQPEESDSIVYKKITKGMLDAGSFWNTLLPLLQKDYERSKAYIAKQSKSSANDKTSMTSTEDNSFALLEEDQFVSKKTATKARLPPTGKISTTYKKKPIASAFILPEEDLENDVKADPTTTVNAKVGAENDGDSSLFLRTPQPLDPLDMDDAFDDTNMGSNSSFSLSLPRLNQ
UniProt Q03330: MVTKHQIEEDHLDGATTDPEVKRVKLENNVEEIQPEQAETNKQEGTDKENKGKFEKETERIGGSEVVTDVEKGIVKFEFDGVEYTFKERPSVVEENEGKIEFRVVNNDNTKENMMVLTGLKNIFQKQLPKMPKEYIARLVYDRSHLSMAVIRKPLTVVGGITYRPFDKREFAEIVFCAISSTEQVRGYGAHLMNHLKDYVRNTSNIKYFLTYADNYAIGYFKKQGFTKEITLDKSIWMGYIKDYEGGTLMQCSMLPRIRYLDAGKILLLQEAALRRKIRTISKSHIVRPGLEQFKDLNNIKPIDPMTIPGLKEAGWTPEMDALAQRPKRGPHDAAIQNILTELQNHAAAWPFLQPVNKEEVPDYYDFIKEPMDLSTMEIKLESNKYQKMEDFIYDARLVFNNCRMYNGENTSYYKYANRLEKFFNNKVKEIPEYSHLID

binding [1]	binding [2]	binding [3]	Substance
binds	binds weakly		Gcn5 (endogenous) (from UniProt Q03330 1-439) (enzyme)
		binds	Gcn5 (recombinant) (from UniProt Q03330 1-439) (enzyme)

— paper PMC10226619
